Measured values: PubChem BioAssay AID743255 (National Center for Advancing Translational Sciences (NCATS), 2014)
About 910 (0.23%) of roughly 390,000 compounds were called active. This list was built around the results that the source calls inconclusive (neither active nor inactive); the mix of calls is not that of the screen. The call rests on the fitted dose curve; in most records, active means well fitted inhibition curve with a large enough effect; inconclusive means small, poorly fitted or top-dose-only effect; inactive means no such curve, though single readings can be large or run the other way. Potencies beside an inconclusive call are fits to weak or partial responses and may not hold up.

Chains of the proteins cited; added tags and fusions are not shown. Lines headed by an entry give the natural chain unless they say otherwise; changes in a name come on top.
UniProt O94782: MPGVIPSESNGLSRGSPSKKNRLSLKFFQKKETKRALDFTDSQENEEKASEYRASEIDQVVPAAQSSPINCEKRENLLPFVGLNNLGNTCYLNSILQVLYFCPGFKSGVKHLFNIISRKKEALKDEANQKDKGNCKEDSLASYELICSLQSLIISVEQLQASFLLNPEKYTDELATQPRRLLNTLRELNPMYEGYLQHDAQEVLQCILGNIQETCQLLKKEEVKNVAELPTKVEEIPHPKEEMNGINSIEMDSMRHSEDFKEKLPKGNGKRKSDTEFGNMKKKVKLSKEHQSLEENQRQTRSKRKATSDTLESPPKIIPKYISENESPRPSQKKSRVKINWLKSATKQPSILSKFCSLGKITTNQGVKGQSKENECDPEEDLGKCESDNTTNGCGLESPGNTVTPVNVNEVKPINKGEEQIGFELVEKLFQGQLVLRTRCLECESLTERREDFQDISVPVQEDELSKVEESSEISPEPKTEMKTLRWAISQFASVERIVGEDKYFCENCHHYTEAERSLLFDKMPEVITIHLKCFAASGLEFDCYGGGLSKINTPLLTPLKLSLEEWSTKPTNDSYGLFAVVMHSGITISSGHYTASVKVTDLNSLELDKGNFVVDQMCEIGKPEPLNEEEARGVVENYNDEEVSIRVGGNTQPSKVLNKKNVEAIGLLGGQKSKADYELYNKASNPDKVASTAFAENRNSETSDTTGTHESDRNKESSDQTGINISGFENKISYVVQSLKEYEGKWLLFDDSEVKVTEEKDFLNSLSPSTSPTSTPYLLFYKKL

molecular target: Ubiquitin carboxyl-terminal hydrolase 1 (Homo sapiens) (UniProt O94782); test: Inhibitors of USP1/UAF1: Primary Screen; details: recombinant USP1/UAF1, Ub-Rhodamine cleavage fluorescence; activity change, negative = inhibition: at 57.1 µM (top of the series); further: nearly all actives have a fitted effect of over 60% in size
Procedure, shortened: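 USP1/UAF1 complex (1 nM) preincubated 15 min at room temperature with compound, then Ub-Rho substrate (150 nM final) added. Kinetic fluorescence at 480/540 nm over 6 reads at 60 s intervals; 50 mM HEPES pH 7.8, 0.5 mM EDTA, 0.1 mg/ml BSA, 1 mM TCEP, 0.01% Tween-20.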
On the % scale 0 is the no-effect control and ±100 the full control effect; potency means the concentration at half of the fitted maximal effect.

SMILES | Potency | activity change, negative = inhibition
CCOc1ccc(Nc2cc(C)nc(-n3nc(C)cc3C)n2)cc1 | inconclusive: 17.8 µM [inhibitor, partial curve] | 
COc1ccc(-c2csc(N(CC3CCCO3)C(=O)c3cccs3)n2)cc1 (configuration not stated) | inconclusive: 25.1 µM [inhibitor, partial curve] | 
CCC(C(=O)N1CCN(Cc2ccc3c(c2)OCO3)CC1)n1nnc2ccccc2c1=O (configuration not stated) | inconclusive: 5.01 µM [inhibitor, partial curve] | 
CCN(CC(=O)Nc1c(F)cccc1F)C(=O)COc1ccc2c(C)cc(=O)oc2c1 | inconclusive: 6.31 µM [inhibitor, single point] | 
O=C(Nc1ccc(O)cc1)C1CC=CCC1 (configuration not stated) | inconclusive: 35.5 µM [inhibitor, partial curve] | 
CCCCSc1nc2sc3c(c2c(=O)n1-c1ccc(C)cc1)CCN(C)C3 | inconclusive: 39.8 µM [inhibitor, partial curve] | 
COc1ccc([C@H]2CC(=O)C=C(c3ccccc3C(F)(F)F)C2)cc1 | inconclusive: 39.8 µM [inhibitor, partial curve] | 
Fc1ccc(Cn2nnnc2C(c2cccs2)N2CCN(C3CCCCC3)CC2)cc1 (configuration not stated) |  | inactive: -19.7%
COc1ccc(CNC(=O)CCc2nnc3n(CC(C)C)c(=O)c4ccccc4n23)cc1 | inconclusive: 4.47 µM [inhibitor, full curve, poor fit] | 
Cc1nc(CSc2nsc(/C=C/N(C)C)c2C#N)cs1 |  | inconclusive: -28.2% [inhibitor]
C/C(=N\NC(=O)c1cc(Br)ccc1O)c1cccs1 |  | inactive: -8.96%
CCOC(=O)c1c(NC(=O)/C=C/C(=O)O)sc(C)c1-c1ccc(Cl)cc1 | inconclusive: 44.7 µM [inhibitor, partial curve, poor fit] | 
C#CCOCCOCCOCCNc1nc(N2CCN(C(=O)CCCCCCCCCCNC(=O)Cn3cc(CCCCCN)nn3)CC2)nc(N2CCN(C(=O)CCCCCCCCCCNC(=O)Cn3cc(C[C@@H](C)O)nn3)CC2)n1 | inconclusive: 12.6 µM [inhibitor, partial curve] | 
COc1ccc(C2/C=C\CN(CC(C)(C)C)CC(=O)N2Cc2ccc(F)cc2)cc1 (configuration not stated) | inconclusive: 7.94 µM [inhibitor, partial curve] | 
Cc1ccc2cc(CN(C(=O)c3cccc(Cl)c3)c3ccccc3)c(=O)[nH]c2c1 | inconclusive: 5.62 µM [inhibitor, single point] | 
CCCSCCCNC(=O)c1ccc2c(c1)sc1nc(-c3ccc(OCC)cc3)cn12 | inconclusive: 0.282 µM [inhibitor, full curve, poor fit] | 
CC1C(=O)N2CCCc3cc(S(=O)(=O)N4CCC(C(N)=O)CC4)cc1c32 (configuration not stated) | inconclusive: 141 µM [inhibitor, partial curve, poor fit] | 
C[C@@H]1CC(=O)[C@H]2CC(CO)=CCC[C@@H]2[C@@]1(C)CC/C(=C/CO)CO | inconclusive: 35.5 µM [inhibitor, single point] | 
COc1cccc(C(=O)OCC(=O)Nc2ccc3c(c2)OCCO3)c1 | inconclusive: 39.8 µM [inhibitor, partial curve, poor fit] | 
Cc1ccc(CCC(=O)Nc2ccc(C)c(C)c2)o1 | inconclusive: 5.62 µM [inhibitor, full curve, poor fit] | 
Cc1ccccc1CSc1nc2ccsc2c(=O)n1CCC(C)C | inconclusive: 50.1 µM [inhibitor, partial curve, poor fit] | 

SMILES | Potency | activity change, negative = inhibition
COc1ccc(-n2c(O)c(C=Nc3ccccc3)c3ccccc3c2=O)cc1 | inconclusive: 39.8 µM [inhibitor, partial curve, poor fit] | 
CCOC(=O)c1ccc(CN(Cc2ccccc2C)S(=O)(=O)c2ccc(F)c(C)c2)cc1 | inconclusive: 3.55 µM [inhibitor, partial curve] | 
O=C(Nc1ccccc1C(F)(F)F)N1CCC(CN2CCc3ccccc3C2)CC1 |  | inactive: -12.5%
Cc1cccc(N2CCN(C(=O)CCCOc3ccccc3)CC2)c1C | inconclusive: 39.8 µM [inhibitor, partial curve, poor fit] | 
N#Cc1cc2c(nc1SCc1cccnc1)CCCCC2 | inconclusive: 22.4 µM [inhibitor, single point] | 
Cc1ccc(OCc2ccc(-c3nc(C#N)c(NCc4ccccc4Cl)o3)o2)cc1 | inconclusive: 44.7 µM [inhibitor, partial curve, poor fit] | 
Cc1ccc(CNC(=O)CCCn2c(=O)[nH]c3ccc(Br)cc3c2=O)cc1 | inconclusive: 31.6 µM [inhibitor, partial curve, poor fit] | 
CC(C)c1cc(C(=O)Nc2sc3c(c2C#N)CCC3)no1 |  | inactive: -12.7%
COc1ccc(OC)c(/C=N/NC(=O)CC(=O)NC2CCCCC2)c1 | inconclusive: 7.94 µM [inhibitor, single point] | 
COc1cccc(-n2c(SCC(=O)Nc3cc(C)on3)nc3c([nH]c4ccccc43)c2=O)c1 | inconclusive: 0.708 µM [inhibitor, full curve] | 
COc1ccc(S(=O)(=O)Cc2ccc(C(=O)N3CCN(C(=O)c4ccco4)CC3)o2)cc1 | inconclusive: 0.891 µM [inhibitor, full curve] | 
CN(C)c1ccc(/C=C(/C(=O)c2ccc(Cl)cc2Cl)n2cncn2)cc1 | inconclusive: 28.2 µM [inhibitor, partial curve] | 
CCCCCCCNC(=O)CN1C(=O)CSc2ccc(S(=O)(=O)N3CCOCC3)cc21 | inconclusive: 56.2 µM [inhibitor, partial curve, poor fit] | 
COc1cc2c(cc1OC)C(c1ccc(-c3ccc(Cl)cc3Cl)o1)=NCC2 | inconclusive: 28.2 µM [inhibitor, partial curve] | 
COc1ccc(-c2onc(C)c2C)cc1S(=O)(=O)NCC1CCN(Cc2cc(C)ccc2C)CC1 | inconclusive: 35.5 µM [inhibitor, partial curve] | 
COc1ccc(Cn2ccnc2SCC(=O)NCc2ccco2)cc1 | inconclusive: 11.2 µM [inhibitor, partial curve, poor fit] | 
CC(=O)c1ccc(NC(=O)COC(=O)CCC2CCCC2)cc1 | inconclusive: 100 µM [inhibitor, partial curve, poor fit] | 
O=C(N/N=C/c1ccc(N2CCOCC2)o1)c1cccc(F)c1 |  | inactive: -20.3%
O=C1CCN(Cc2ccccc2)CCN1[C@H](CO)Cc1ccccc1 |  | inactive: -4.45%
NS(=O)(=O)c1ccc(N2CCN(CCOc3ccc(Cl)cc3)CC2)nc1 |  | inactive: -8.26%
CCN(CC)c1nc(N)nc(NS(=O)(=O)c2ccc(Cl)cc2)n1 |  | inactive: -11.3%

Three successive records already listed, for reference:
SMILES | Potency | activity change, negative = inhibition
CCOc1ccc(Nc2cc(C)nc(-n3nc(C)cc3C)n2)cc1 | inconclusive: 17.8 µM [inhibitor, partial curve] | 
COc1ccc(-c2csc(N(CC3CCCO3)C(=O)c3cccs3)n2)cc1 (configuration not stated) | inconclusive: 25.1 µM [inhibitor, partial curve] | 
CCC(C(=O)N1CCN(Cc2ccc3c(c2)OCO3)CC1)n1nnc2ccccc2c1=O (configuration not stated) | inconclusive: 5.01 µM [inhibitor, partial curve] | 

Continued.

SMILES | Potency | activity change, negative = inhibition
COc1cc(NC(=O)C(CCSC)NS(=O)(=O)c2ccc3c(c2)oc(=O)n3C)cc(OC)c1 (configuration not stated) |  | inactive: -16%
CCc1ccc(S(=O)(=O)/N=C2\C=C(Nc3ccc(C(=O)O)cc3)C(=O)c3ccccc32)cc1 | active: 17.8 µM | 
Cc1ccc(S(=O)(=O)N2CCC[C@H]2C(=O)OCc2cc(=O)oc3cc(C)ccc23)cc1 | inconclusive: 7.94 µM [inhibitor, single point] | 
CCCOc1cccc(-c2nn(-c3ccccc3)cc2/C=C(\C#N)C(=O)NCCCn2ccnc2)c1 | inconclusive: 35.5 µM [inhibitor, partial curve] | 
CC(=O)N(C)c1ccc(NC(=O)Nc2cccc3ccccc23)cc1 | inconclusive: 25.1 µM [inhibitor, partial curve] | 
Cc1sc(-n2c(C)cc(/C=C3\SC(=S)NC3=O)c2C)c(C#N)c1C | inconclusive: 39.8 µM [inhibitor, single point] | 
COC1=C(Nc2ccc(O)cc2)C(=O)c2ccccc2C1=O | inconclusive: 31.6 µM [inhibitor, single point] | 
Cc1ccc2occ(CC(=O)N(Cc3ccc(C(C)C)cc3)C3CCS(=O)(=O)C3)c2c1 (configuration not stated) | inconclusive: 6.31 µM [inhibitor, partial curve] | 
Cc1nc(-n2[nH]c3c(c2=O)CCCC3)[nH]c(=O)c1Cc1ccccc1 | active: 28.2 µM | 
Nc1nnc(CCOc2ccc(Cl)cc2)s1 | inconclusive: 3.16 µM [inhibitor, partial curve] | 
CCN1CCc2nc3sc(C(=O)c4ccc(F)cc4)c(N)c3cc2C1 | inconclusive: 4.47 µM [inhibitor, full curve] | 
CC1=C(C#N)C(=O)NC(=O)/C1=C\c1ccc(-c2ccc(C)cc2[N+](=O)[O-])o1 | inconclusive: 39.8 µM [inhibitor, single point] | 
CN(C)CCCOc1ccc(C(C)(C)c2ccccc2)cc1 |  | inactive: -17.5%
O=C(CCOc1ccccc1)N(Cc1cccnc1)c1nc2c(F)cccc2s1 | inconclusive: 14.1 µM [inhibitor, partial curve, poor fit] | 
Cc1ccccc1CSc1cn(CC(=O)N2CCCCCC2)c2ccccc12 | inconclusive: 3.98 µM [inhibitor, partial curve] | 
COCC1CCN(Cc2cn(Cc3ccccc3)nc2-c2cc3ccccc3o2)CC1 |  | inactive: -7.53%
CC(/C=C1\SC(=S)N(NS(=O)(=O)c2ccccc2)C1=O)=C\c1ccccc1 | inconclusive: 39.8 µM [inhibitor, partial curve, poor fit] | 
CCOC(=O)c1c(-c2ccc(C)o2)csc1NC(=O)CN1CCOCC1 | inconclusive: 20 µM [inhibitor, partial curve] | 
CC1=C(C(=O)N(C(C)C)C(C)C)CC(CC(=O)NCc2cccs2)C(=O)N1Cc1ccccc1 (configuration not stated) | inconclusive: 8.91 µM [inhibitor, full curve, poor fit] | 
O=C(Nc1cccc(Br)c1)c1cc2ccccc2o1 |  | inactive: -5.4%
